Reference: patent US20090239949A1, “Polar Hydrophilic Prodrugs of Amphetamine and Other Stimulants and Processes for Making and Using the Same” (priority 2007, published 2009)
Some results were stated once for a whole list of compounds, not compound by compound.

Experiments:
[1] = Intranasal pharmacokinetic study of d-amphetamine, hArg-Amp and Lys-Amp (Example 15)
[2] = Intravenous pharmacokinetic study of d-amphetamine, hArg-Amp and Lys-Amp (Example 16)

For l-lysine-d-amphetamine [Lys-Amp], the “release of d-amphetamine within the first hour of administration” value ([1]; first hour) was < 25%, the release of d-amphetamine ([1]; whole study) was < 50% and the release of d-amphetamine [2] was < 15%.
